Entries after “also recorded” stand apart in the source; their conditions may differ.
Experiments:
[1] = system: corn hybrids (R and S) leaf samples; assay: Metabolite profiling of corn hybrids R and S, drought vs fully irrigated, pre-flowering time course; design: species or system maize; settings: eight pre-flowering time points, FIGS. 1A-1D
[2] = system: maize leaf tissues; assay: Metabolite profiling of leaves of six maize varieties, drought stress vs well-watered; settings: for Fold Change (FS/FI): metabolite level in leaf, drought stress vs well-watered; for change of level in drought stressed plants compared to well watered plants (in words): six maize varieties, leaf tissue

| SMILES | level under drought conditions (in words) [1] | most dramatic increase amongst the metabolites in drought conditions ([2]; drought vs well-watered, summary of Table 1) | Fold Change (FS/FI) ([2]; maize Entry 1) | Fold Change (FS/FI) ([2]; maize Entry 2) | Fold Change (FS/FI) ([2]; maize Entry 3) | Fold Change (FS/FI) ([2]; maize Entry 4) | Fold Change (FS/FI) ([2]; maize Entry 5) | Fold Change (FS/FI) ([2]; maize Entry 6) | change of level in drought stressed plants compared to well watered plants (in words) [2] |
| --- | --- | --- | --- | --- | --- | --- | --- | --- | --- |
| NC(=O)C[C@H](N)C(=O)O [asparagine] | increased | approximately 50 fold | 4.11 | 53.87 | 1.62 | 20.59 | 3.66 | 0.99 | significant increase |
| NCC(=O)O [glycine] | – | – | – | – | – | – | – | – | increase |
| N[C@@H](CO)C(=O)O [serine] | – | – | – | – | – | – | – | – | increase |
| C[C@H](N)C(=O)O [alanine] | – | – | – | – | – | – | – | – | showed decreases; also recorded: decrease |
| N[C@@H](CCC(=O)O)C(=O)O [glutamate] | – | – | 0.8 | 0.47 | 0.57 | 0.77 | 0.95 | 0.45 | showed decreases |
| O=C(O)[C@@H]1CCCN1 [proline] | increased | – | – | – | – | – | – | – | only increased in entry 5 (p<0.05), entry 3 (p>0.05), and entry 6 (p>0.05) |
| NC(=O)NC1NC(=O)NC1=O (stereo not shown) [allantoin] | increased | – | 1.69 | 36.69 | 5.92 | 7.28 | 9.85 | 2.06 | significant increase |
| NC(=O)CC[C@H](N)C(=O)O [glutamine] | increased | – | 1.3 | 4.76 | 0.78 | 3.79 | 2.59 | 0.77 | significant increase |

Reference: patent publication US20110030099A1, “PLANTS AND MODULATORS FOR IMPROVED DROUGHT TOLERANCE” (priority 2009, published 2011)
